In patent publication US8247612B2, “Organic sulfur compound and its use for controlling harmful arthropod” (Sumitomo Chemical Company, Limited, priority 2007, dated 2012):
Some results were stated once for a whole list of compounds, not compound by compound.

Test system: Nilaparvata lugens
Assay: Test Example 1: rice plants absorb test solution from the cup bottom, number of parasitic Nilaparvata lugens counted
Type: in vivo
Settings: 55.6 ppm active ingredient, 45 ml absorbed by rice plants from the cup bottom; 30 first-instar larvae released after 6 days; counted after 6 further days at 25° C.

SMILES | number of the parasitic pests
COC(=O)C(Cl)(CCC(C(C)C)C(F)(F)F)S(=O)(=O)CCC(F)(F)F (stereo not shown) [present compound (19), methyl 2-chloro-6-methyl-5-(trifluoromethyl)-2-(3,3,3-trifluoropropylsulfonyl)heptanoate] | ≤ 3
COC(=O)C(CCC(OC)C(F)(F)F)S(=O)(=O)CCC(F)(F)F (stereo not shown) [present compound (24), methyl 6,6,6-trifluoro-5-methoxy-2-(3,3,3-trifluoropropylsulfonyl)hexanoate] | ≤ 3
CSC(CCC(Cl)(C(N)=O)S(=O)(=O)CCC(F)(F)F)C(F)(F)F (stereo not shown) [present compound (29), 2-chloro-6,6,6-trifluoro-5-methylthio-2-(3,3,3-trifluoropropylsulfonyl)hexanamide] | ≤ 3
CCC(CCC(C#N)S(=O)(=O)CCC(F)(F)F)C(F)(F)F (stereo not shown) [present compound (14), 5-(trifluoromethyl)-2-(3,3,3-trifluoropropylsulfonyl)heptanenitrile] | ≤ 3
CCC(CCC(C)(C#N)S(=O)(=O)CCC(F)(F)F)C(F)(F)F (stereo not shown) [present compound (17), 2-methyl-5-(trifluoromethyl)-2-(3,3,3-trifluoropropylsulfonyl)heptanenitrile] | ≤ 3
CC(C)(C)C(CCC(Cl)(C(N)=O)S(=O)(=O)CCC(F)(F)F)C(F)(F)F (stereo not shown) [present compound (9), 2-chloro-6,6-dimethyl-5-trifluoromethyl-2-(3,3,3-trifluoropropylsulfonyl)heptanamide] | ≤ 3
CC(C)C(CCC(Cl)(C(N)=O)S(=O)(=O)CCC(F)(F)F)C(F)(F)F (stereo not shown) [present compound (20), 2-chloro-6-methyl-5-(trifluoromethyl)-2-(3,3,3-trifluoropropylsulfonyl)heptanamide] | ≤ 3
COC(CCC(Cl)(C(N)=O)S(=O)(=O)CCC(F)(F)F)C(F)(F)F (stereo not shown) [present compound (26), 2-chloro-6,6,6-trifluoro-5-methoxy-2-(3,3,3-trifluoropropylsulfonyl)hexanamide] | ≤ 3
CC(CCC(Cl)(C(N)=O)S(=O)(=O)CCC(F)(F)F)C(F)(F)C(F)(F)F (stereo not shown) [present compound (31), 2-chloro-6,6,7,7,7-pentafluoro-5-methyl-2-(3,3,3-trifluoropropylsulfonyl)heptanamide] | ≤ 3
CCC(CCC(F)(C(=O)OC)S(=O)(=O)CCC(F)(F)F)C(F)(F)F (stereo not shown) [present compound (11), methyl 2-fluoro-5-(trifluoromethyl)-2-(3,3,3-trifluoropropylsulfonyl)heptanoate] | ≤ 3
CCC(CCC(Cl)(C(N)=O)S(=O)(=O)CCC(F)(F)F)C(F)(F)F (stereo not shown) [present compound (6), 2-chloro-5-trifluoromethyl-2-(3,3,3-trifluoropropylsulfonyl)heptanamide] | ≤ 3
COC(=O)C(Cl)(CCC(C)C(F)(F)F)S(=O)(=O)CCC(F)(F)F (stereo not shown) [present compound (2), methyl 2-chloro-6,6,6-trifluoro-5-methyl-2-(3,3,3-trifluoropropylsulfonyl)hexanoate] | ≤ 3
CCC(CCC(Cl)(C(=O)OC)S(=O)(=O)CCC(F)(F)F)C(F)(F)F (stereo not shown) [present compound (5), methyl 2-chloro-5-trifluoromethyl-2-(3,3,3-trifluoropropylsulfonyl)heptanoate] | ≤ 3
CC(CCC(Cl)(C(N)=O)S(=O)(=O)CCC(F)(F)F)C(F)(F)F (stereo not shown) [present compound (3), 2-chloro-6,6,6-trifluoro-5-methyl-2-(3,3,3-trifluoropropylsulfonyl)hexanamide] | ≤ 3
CCC(CCC(Cl)(C#N)S(=O)(=O)CCC(F)(F)F)C(F)(F)F (stereo not shown) [present compound (16), 2-chloro-5-(trifluoromethyl)-2-(3,3,3-trifluoropropylsulfonyl)heptanenitrile] | ≤ 3
COC(=O)C(Cl)(CCC(SC)C(F)(F)F)S(=O)(=O)CCC(F)(F)F (stereo not shown) [present compound (28), methyl 2-chloro-6,6,6-trifluoro-5-methylthio-2-(3,3,3-trifluoropropylsulfonyl)hexanoate] | ≤ 3
CCC(CCC(F)(C#N)S(=O)(=O)CCC(F)(F)F)C(F)(F)F (stereo not shown) [present compound (15), 2-fluoro-5-(trifluoromethyl)-2-(3,3,3-trifluoropropylsulfonyl)heptanenitrile] | ≤ 3
COC(=O)C(Cl)(CCC(C(C)(C)C)C(F)(F)F)S(=O)(=O)CCC(F)(F)F (stereo not shown) [present compound (8), methyl 2-chloro-6,6-dimethyl-5-trifluoromethyl-2-(3,3,3-trifluoropropylsulfonyl)heptanoate] | ≤ 3
COC(=O)C(Cl)(CCC(OC)C(F)(F)F)S(=O)(=O)CCC(F)(F)F (stereo not shown) [present compound (25), methyl 2-chloro-6,6,6-trifluoro-5-methoxy-2-(3,3,3-trifluoropropylsulfonyl)hexanoate] | ≤ 3
CCC(CCC(F)(C(N)=O)S(=O)(=O)CCC(F)(F)F)C(F)(F)F (stereo not shown) [present compound (12), 2-fluoro-5-(trifluoromethyl)-2-(3,3,3-trifluoropropylsulfonyl)heptanamide] | ≤ 3
CCCC(CCC(Cl)(C(N)=O)S(=O)(=O)CCC(F)(F)F)C(F)(F)F (stereo not shown) [present compound (23), 2-chloro-5-(trifluoromethyl)-2-(3,3,3-trifluoropropylsulfonyl)octanamide] | ≤ 3
CC(CCC(C#N)S(=O)(=O)CCC(F)(F)F)C(F)(F)F (stereo not shown) [present compound (10), 6,6,6-trifluoro-5-methyl-2-(3,3,3-trifluoropropylsulfonyl)hexanenitrile] | ≤ 3
